PubChem BioAssay AID1259308 – NCATS, 2017
Here is an unselected part of about 59,000 deposited reagents. About 1,510 of all reagents (2.6%) were called active. 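Calls use total luciferase alone and ignore viability, so some active siRNAs may act by altering cell number.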 Entries without a mark were called inactive. The numbers tell different reagents against one gene apart.

Purpose: 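Genes whose loss raises luciferase production in HEK293 cells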 (primary screen)
Cell system: human HEK293 embryonic kidney cells stably expressing firefly luciferase (HEK-CMV-Luc2-Hygro)
Reagents: single siRNA against human genes, 0.8 pmol siRNA per well
Time to read-out: 72 h
Measurement: 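Reporter luminescence and viable-cell signal on separate replicate plates, given as percent of non-targeting control and median/MAD z-scores, plus per-cell luciferase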
Reading the numbers: total luciferase, z-score and total luciferase, % of control: higher = more reporter protein produced; luciferase per cell, z-score: higher = more reporter output per viable cell; viable cells, % of control: higher = more viable cells
Hit rule: 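Active when the median/MAD z-score for overall luciferase is greater than 3; a gene was taken forward for validation with new siRNAs if at least two of its three siRNAs passed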
Calls: active = raised luciferase; inactive = no rise

| gene symbol | reagent | total luciferase, z-score | total luciferase, % of control | luciferase per cell, z-score | viable cells, % of control |
| --- | --- | --- | --- | --- | --- |
| ARSK (arylsulfatase family member K) | 1 | -0.199 | 77.9 | 0.112 | 84.6 |
| ARSK (arylsulfatase family member K) | 2 | -1.65 | 49 | -1.72 | 86 |
| ARSK (arylsulfatase family member K) | 3 | -1.62 | 49.6 | -0.597 | 64.9 |
| ESYT1 (extended synaptotagmin 1) | 1 | -0.449 | 73 | 0.619 | 69.3 |
| ESYT1 (extended synaptotagmin 1) | 2 | 0.458 | 91 | 0.404 | 91.4 |
| ESYT1 (extended synaptotagmin 1) | 3 | -2.04 | 41.4 | -1.58 | 70.1 |
| NPY4R (neuropeptide Y receptor Y4) | 1 | 1.71 | 116 | 1.39 | 89.8 |
| NPY4R (neuropeptide Y receptor Y4) | 2 | 1.29 | 108 | 0.792 | 97.6 |
| NPY4R (neuropeptide Y receptor Y4) | 3 | -1.13 | 59.4 | -1.47 | 97.8 |
| CYP2J2 (cytochrome P450 family 2 subfamily J member 2) | 1 | -0.521 | 71.5 | -0.509 | 91.4 |
| CYP2J2 (cytochrome P450 family 2 subfamily J member 2) | 2 | -0.988 | 62.2 | -1.81 | 112 |
| CYP2J2 (cytochrome P450 family 2 subfamily J member 2) | 3 | -1.59 | 50.3 | -1.5 | 83.4 |
| CNN1 (calponin 1) | 1 | 0.355 | 89 | 0.46 | 88.1 |
| CNN1 (calponin 1) | 2 | -2.14 | 39.2 | -0.3 | 47.4 |
| CNN1 (calponin 1) | 3 | 2.74 | 136 | 2.14 | 86.8 |
| ZNF473 (zinc finger protein 473) | 1 | 0.0308 | 82.5 | -0.385 | 102 |
| ZNF473 (zinc finger protein 473) | 2 | -0.145 | 79 | -0.279 | 95 |
| ZNF473 (zinc finger protein 473) | 3 | 1.1 | 104 | 1.12 | 86.5 |
| FRG2B (FSHD region gene 2 family member B) | 1 | 0.733 | 96.5 | 0.431 | 96.2 |
| FRG2B (FSHD region gene 2 family member B) | 2 | 0.526 | 92.3 | 0.56 | 89 |
| FRG2B (FSHD region gene 2 family member B) | 3 | -2.57 | 30.8 | -2.19 | 61.4 |
| TSC22D4 (TSC22 domain family member 4) | 1 | -0.0776 | 80.3 | -0.193 | 94.5 |
| TSC22D4 (TSC22 domain family member 4) | 2 | -0.204 | 77.8 | 0.461 | 77 |
| TSC22D4 (TSC22 domain family member 4) | 3 | -0.045 | 81 | 0.743 | 74.4 |

No new results follow: 3 of the entries above.
| gene symbol | reagent | total luciferase, z-score | total luciferase, % of control | luciferase per cell, z-score | viable cells, % of control |
| --- | --- | --- | --- | --- | --- |
| ESYT1 (extended synaptotagmin 1) | 3 | -2.04 | 41.4 | -1.58 | 70.1 |
| NPY4R (neuropeptide Y receptor Y4) | 1 | 1.71 | 116 | 1.39 | 89.8 |
| NPY4R (neuropeptide Y receptor Y4) | 2 | 1.29 | 108 | 0.792 | 97.6 |
